In patent US11135177B2, “Methods of making and using compositions comprising flavonoids” (VIZURI HEALTH SCIENCES CONSUMER HEALTHCARE, INC., priority 2009, dated 2021):
For some assays here: At least one structure is not confirmed: it was looked up by name or label, or the drawing left a doubt. Some entries share one result that the patent states for a list of compounds.

Assays:
[1] = Particle size distribution (static light scattering / Malvern Mastersizer); assay type: physicochemical; details: 1.25% flavonoid within Aqueous Phase Lotion
[2] = water and nearly all suitable solvents; cited from earlier work
[3] = Qualitative assessment of hydrated flavonoid suspension in Aqueous Phase Lotion diluted with water; assay type: physicochemical; details: hydrated flavonoid 1.25% in APL; 5 ml of lotion in 150 ml of water

| Compound | mean particle size [1] [nm] | solubility in water (practically insoluble) [2] | Evidence of Nano Particles [3] | Particulate Settling After 3 hours [3] |
| --- | --- | --- | --- | --- |
| O=c1cc(-c2ccc(O)cc2)oc2cc(O)cc(O)c12 [apigenin, 4′,5,7,-trihydroxyflavone] | < 400 | less than 1 mg/ml |  |  |
| O=c1cc(-c2ccc(O)c(O)c2)oc2cc(O)cc(O)c12 [luteolin, 3′,4′,5,7-tetrahydroxyflavone] | < 400 | less than 1 mg/ml |  |  |
| O=c1c(O)c(-c2ccc(O)c(O)c2)oc2cc(O)cc(O)c12 [quercetin, Quercetin] | < 400 |  |  |  |
| C[C@@H]1O[C@@H](OC[C@H]2O[C@@H](Oc3c(-c4ccc(O)c(O)c4)oc4cc(O)cc(O)c4c3=O)[C@H](O)[C@@H](O)[C@@H]2O)[C@H](O)[C@H](O)[C@H]1O [rutin, RUTIN] | < 400 |  | Yes | None |
